Measured values taken from PMC4948766.
No constants are given. Whether binding was seen depends on the method and setting. Binding seen in cells or lysates may run through a third protein. Here binding means that the protein was enriched with, or labelled near, the bait; the list need not be complete.

Amino acid sequences for entries named in this document (tags omitted). A change or cut given only in a name is not applied to a line headed by its entry. Chains listed by the source or under a name are the forms on record and can include a tag or linker.
UniProt Q9HD34: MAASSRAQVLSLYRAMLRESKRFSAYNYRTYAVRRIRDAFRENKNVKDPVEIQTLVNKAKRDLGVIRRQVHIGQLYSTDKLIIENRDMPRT
human ISD11 (expressed as GST-ISD11 from pZM96, GST removed with thrombin) (Q9HD34, form named): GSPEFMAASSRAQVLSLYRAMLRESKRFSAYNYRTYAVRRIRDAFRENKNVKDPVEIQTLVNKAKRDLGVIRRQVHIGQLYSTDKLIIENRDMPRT
UniProt P0A6B7: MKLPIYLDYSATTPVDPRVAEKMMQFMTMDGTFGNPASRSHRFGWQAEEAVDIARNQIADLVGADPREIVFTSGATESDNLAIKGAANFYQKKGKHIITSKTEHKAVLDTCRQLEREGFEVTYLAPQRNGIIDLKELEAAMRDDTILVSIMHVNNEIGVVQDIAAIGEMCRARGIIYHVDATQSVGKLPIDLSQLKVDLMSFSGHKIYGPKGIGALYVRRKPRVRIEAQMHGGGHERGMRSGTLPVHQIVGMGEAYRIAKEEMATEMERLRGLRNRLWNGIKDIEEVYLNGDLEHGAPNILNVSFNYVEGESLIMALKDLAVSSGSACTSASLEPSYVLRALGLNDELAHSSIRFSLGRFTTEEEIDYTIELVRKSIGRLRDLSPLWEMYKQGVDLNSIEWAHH

Experiments:
[1] = target: human ISD11 (expressed as GST-ISD11 from pZM96, GST removed with thrombin) (human) (UniProt Q9HD34); experiment: affinity purification with mass spectrometry; GST-ISD11 expressed in E. coli, Glutathione Sepharose, thrombin cleavage, SEC on 16/600 Superdex 75; co-purified ca. 45 kDa protein identified by MS/MS
[2] = target: His-tagged ISD11 (pZM6), co-expressed with IscS (human) (UniProt Q9HD34); experiment: affinity purification with mass spectrometry; untagged IscS (pSL219) co-expressed with His-ISD11 (pZM6) in E. coli CL100 ΔiscS, co-purified; MALDI-TOF MS from 15% SDS-PAGE

Row | Substance | binding [1] | binding [2]
1 | bacterial IscS, endogenous in the E. coli expression host (from UniProt P0A6B7 1-404) (enzyme) | binds | –
2 | untagged IscS (pSL219), co-expressed with His-ISD11 (from UniProt P0A6B7 1-404) (enzyme) | – | binds
